# Test results taken from patent publication US20240108662A1, “ENGINEERED CELLS FUNCTIONALIZED WITH IMMUNE CHECKPOINT MOLECULES AND USES THEREOF” (The University of North Carolina at Chapel Hill, priority 2020, published 2024).
# B1: Q99P58 (protein, UniProt Q99P58 1-218, looked up)
# chain: MTDGDYDYLIKLLALGDSGVGKTTFLYRYTDNKFNPKFITTVGIDFREKRVVYDTQGADGASGKAFKVHLQLWDTAGQERFRSLTTAFFRDAMGFLLMFDLTSQQSFLNVRNWMSQLQANAYCENPDIVLIGNKADLPDQREVNERQARELAEKYGIPYFETSAATGQNVEKSVETLLDLIMKRMEKCVEKTQVPDTVNGGNSGKLDGEKPAEKKCAC
# modifications: full-length
# B2: Q9DBY1 (protein, UniProt Q9DBY1 1-612, looked up)
# chain: MFRTAVMMAASLALTGAVVAHAYYLKHQFYPTVVYLTKSSPSMAVLYIQAFVLVFLLGKVMGKVFFGQLRAAEMEHLLERSWYAVTETCLAFTVFRDDFSPRFVALFTLLLFLKCFHWLAEDRVDFMERSPNISWLFHCRIVSLMFLLGILDFLFVSHAYHSILTRGASVQLVFGFEYAILMTMVLTIFIKYVLHSVDLQSENPWDNKAVYMLYTELFTGFIKVLLYMAFMTIMIKVHTFPLFAIRPMYLAMRQFKKAVTDAIMSRRAIRNMNTLYPDATPEELQAVDNVCIICREEMVTGAKRLPCNHIFHTSCLRSWFQRQQTCPTCRMDVLRASLPAQSPPPPEPADQGPPPAPHPQPLLPQPPNFPQGLLPPFPPGMFPLWPPMGPFPPVPPPPSSGEAAAPPPTSTAVSRPSGAATTTAAGTSTSAPAPGSVPGPEAGPAPGFPFPPPWMGMPLPPPFAFPPMPVPPAGFAGLTPEELRALEGHERQHLEARLQSLRNIHTLLDAAMLQINQYLTVLASLGPPRPATSVNPTEETASTVVSAAPSTSAPSSEAPTPSPGASPPIPEAEKPPAPESVGIVEELPEDGEPDAAELRRRRLQKLESPVAH
# modifications: full-length
# B3: Q99JY4 (protein, UniProt Q99JY4 1-376, looked up)
# chain: MEGEEKPAQEADVEPVVTAGTSEAVPRVLAGDPQNISDVDAFNLLLEMKLKRRRERPNLPRTVTQLVAEDGSRVYVVGTAHFSDDSKRDVVKTIREVQPDVVVVELCQYRVSMLKMDERTLLREAKEVSLEKLQQAVRQNGLMSGLMQMLLLKVSAHITEQLGMAPGGEFREAFKEASKVPFCKFHLGDRPIPVTFKRAIAALSFWQKVKLAWGLCFLSDPISKDDVERCKQKDLLEQMMAEMIGEFPDLHRTIVSERDVYLTYMLRQAARRLELPRASDAEPRKCVPSVVVGVVGMGHVPGIEKNWSTDLNIQEIMTVPPPSISGRVSRVAVKAAFFGLLGYSLYWMGRRTLNLVLSLPAAQFCLQRVSEARPGR
# modifications: full-length
# B4: O09110 (protein, UniProt O09110 1-347, looked up)
# chain: MESPAASPPASLPQTKGKSKRKKDLRISCVSKPPVSNPTPPRNLDSRTFITIGDRNFEVEADDLVTISELGRGAYGVVEKVRHAQSGTIMAVKRIRATVNTQEQKRLLMDLDINMRTVDCFYTVTFYGALFREGDVWICMELMDTSLDKFYRKVLEKNMKIPEDILGEIAVSIVRALEHLHSKLSVIHRDVKPSNVLINKEGHVKMCDFGISGYLVDSVAKTMDAGCKPYMAPERINPELNQKGYNVKSDVWSLGITMIEMAILRFPYESWGTPFQQLKQVVEEPSPQLPADQFSPEFVDFTSQCLRKNPAERMSYLELMEHPFFTLHKTKKTDIAAFVKEILGEDS
# modifications: full-length
# B5: Q8CHJ2 (protein, UniProt Q8CHJ2 1-290, looked up)
# chain: MASLNVSLCFFFATCAICEVARRASKALLPAGTYASFARGAVGAAQLAACCLEMRVLVELGPWAGGFGPDLLLTLVFLLFLVHGVTFDGASANPTVALQEFLMVEASLPNTLLKLSAQVLGAQAACALTQRCWAWELSELHLLQSLMAAHCSSTLRTSVLQGMLVEGACTFFFHLSLLHLQHSLLVYRVPALALLVTLMAYTAGPYTSAFFNPALAASVTFHCPGNTLLEYAHVYCLGPVAGMILAVLLHQGHLPRLFQRNLFYRQKSKYRTPRGKLSPGSVDAKMHKGE
# modifications: full-length
# B6: Q8VHE0 (protein, UniProt Q8VHE0 1-760, looked up)
# chain: MAGQQFQYDDSGNTFFYFLTSFVGLIVIPATYYLWPRDQNAEQIRLKNIRKVYGRCMWYRLRLLKPQPNIIPTVKKIVLLAGWALFLFLAYKVSKTDREYQEYNPYEVLNLDPGATVAEIKKQYRLLSLKYHPDKGGDEVMFMRIAKAYAALTDEESRKNWEEFGNPDGPQATSFGIALPAWIVDQKNSILVLLVYGLAFMVILPVVVGSWWYRSIRYSGDQILIRTTQIYTYFVYKTRNMDMKRLIMVLAGASEFDPQYNKDSTSRPTDNILIPQLIREIGSINLKKNEPPLTCPYSLKARVLLLSHLARMKIPETLEEDQQFMLKKCPALLQEMVNVICQLIIMARSREEREFRAPTLASLENCMKLSQMAVQGLQQFKSPLLQLPHIEEDNLRRVSNHKKYKIKTIQDLVSLKESDRHSLLHFLEDEKYEEVMAVLGSFPYVTMDIKSQVLDDEDSNNITVGSLVTVLVKLTRQTMAEVFEKEQSICAAEEQPTEDGQSDANKIKAKGGWQQKNKGPKKMPKSKKKKPLKKKPTTVPLPQAKQQKQKQANGVVGSEAAIKEEEDDISDKGSDSEEEETNRDSQSEKEDGSDRESDREQDEKQSKDDEAEWQELQQSIQRKERALLETKSKITHPVYSLYFPEEKQEWWWLYIADRKEQTLISMPYHVCTLKDTEEVELKFPAPGKPGNYQYTVFLRSDSYMGLDQIKPLKLEVHEAKPVPENHPQWDTAIEGDEDQEDSEGFEDSFEEEEEEEEGGD
# modifications: full-length
# B7: Q925H6 (protein, UniProt Q925H6 1-87, looked up)
# chain: MSHYSSYYGGLGYGYGSFGGPGCGCNSIRRLVGFGSGYGGFGYGSGFGGFGYGSGYGGYGYGSGFRGYGCGCRRPSCCGGYGFSSFY
# modifications: full-length
# B8: Q6AW69 (protein, UniProt Q6AW69 1-1297, looked up)
# chain: MELYFGEYQHVQQEYGVHLRLASGDTPKPRNSQPSKAGSYGVSIRVQGIDGHPYIVLNNTERCLAGTPFPENAPSFPSSVINNLSLHPSNGTVLKENTPEELQLPENPYLQTSPLRGQKQFSLHEGRNGVLERKDGPTKLPHVLNFQRHPELLQPYDPEKNEVNAKKHHPPESPWLRNATEDGTNCKKSRNCFPKSYGSQPNSPTSEDLAKTNMTAIRLCSSVVIEDPQKQTSVCVNVQRCAKEGVGEETLSPRRKSPTAPSPQAYSETKKNRPDVLPFRRQDSAGPILDGARSRRSSSSSTTPTSATSLYKFLLDDQECAIHADSVNRHENRRYIPFLPGTGRDIDTCSIPGVDQLIEKFDQKPGLQRRGRSGKRNRINPDDRKRSRSVDSAFPFGLQGNTEYLTEFSRNLGKSSEHLLRPSQVFPQRSVAQEHRGKHSPSSPPAKLQGAQGAHPKPPLQNKDGKVLNKGRQESTGACAPSLPAPNKKEEEIKIATATLMLQNRAVAATSDSGAKKISVKTFPSDSSTQATPDLLKGQQELTQQTNEETAKQILYNYLKEGGTDNEDATKRKVNLVFEKIQTLKSRAAGSAQGSNQAPNSPSEGNSLLDQKNKLILEVSELQQQLQLEMKNQQNIKEERERMREDLEELRVRHQSQVEETATLQRRLEESEGELRKSLEELFQVKMEREQHQTEIRDLQDQLSEMHDELDSTKRSEDREKGALIEELLQAKQDLQDLLIAKEEQEDLLRKRERELTALKGALKEEVSSHDQEMDKLKEQYDAELQALRESVEEATKNVEVLASRSNSSEQSQAEADLREKVLKEENEKLQGRIAELERRAAQLQRQMEDVKGDEAQAKETLRKCESEVQQLEEALVHARKEEKEATCARRALEKELEQARRELSQVSQEQKELLEKLRDEAEQKEQLRKLKNEMESERWHLDKTIEKLQKEMADIAEASRTSSLELQKQLGEYKEKNRRELAEMQTQLKEKCLEVEKARLAASKMQDELRLKEEELQDYQRAEEEALTKRQLLEQSLKDLEYELEAKSHLKDDRSRLIKQMEDKVSQLEIELEEERTNADLLSERITWSREQMEQMRSELLQEKAAKQDLECDKISLERQNKDLKSRIIHLEGSYRSSKEGLVVQMEARIAELEDRLENEERDRANLQLSNRRLERKVKELVMQVDDEHLSLTDQKDQLSLRLKAMKRQVEEAEEEIDRLESSKKKLQRELEEQMGVNEQLQGQLNSLKKGLRLKTLSSKVLDDSDDDDLSSDAGSLYEAPLSYAFPKDSTIASQI
# modifications: full-length
# B9: P21981 (protein, UniProt P21981 1-686, looked up)
# chain: MAEELLLERCDLEIQANGRDHHTADLCQEKLVLRRGQRFRLTLYFEGRGYEASVDSLTFGAVTGPDPSEEAGTKARFSLSDNVEEGSWSASVLDQQDNVLSLQLCTPANAPIGLYRLSLEASTGYQGSSFVLGHFILLYNAWCPADDVYLDSEEERREYVLTQQGFIYQGSVKFIKSVPWNFGQFEDGILDTCLMLLDMNPKFLKNRSRDCSRRSSPIYVGRVVSAMVNCNDDQGVLLGRWDNNYGDGISPMAWIGSVDILRRWKEHGCQQVKYGQCWVFAAVACTVLRCLGIPTRVVTNYNSAHDQNSNLLIEYFRNEFGELESNKSEMIWNFHCWVESWMTRPDLQPGYEGWQAIDPTPQEKSEGTYCCGPVSVRAIKEGDLSTKYDAPFVFAEVNADVVDWIRQEDGSVLKSINRSLVVGQKISTKSVGRDDREDITHTYKYPEGSPEEREVFTKANHLNKLAEKEETGVAMRIRVGDSMSMGNDFDVFAHIGNDTSETRECRLLLCARTVSYNGVLGPECGTEDINLTLDPYSENSIPLRILYEKYSGCLTESNLIKVRGLLIEPAANSYLLAERDLYLENPEIKIRVLGEPKQNRKLVAEVSLKNPLSDPLYDCIFTVEGAGLTKEQKSVEVSDPVPAGDLVKARVDLFPTDIGLHKLVVNFQCDKLKSVKGYRNVIIGPA
# modifications: full-length
# Assay: Proteomic analysis of native murine pancreata and decelled pancreatic ECM (Table 1)
# Design: species or system mouse
# Details: Native pancreas tissue
row,Molecule,Mean of log2(intensities) [a.u.]
1,B1,24.23
2,B2,24.43
3,B3,24.61
4,B4,21.52
5,B5,26.86
6,B6,27.03
7,B7,21.47

# Same assay, conditions: Pancreatic ECM (decelled)
row,Molecule,Mean of log2(intensities) [a.u.]
1,B1,26.89
2,B2,27.04
3,B3,27.04
4,B4,23.94
5,B5,29.25
6,B6,29.38
7,B7,23.81

# Same assay, conditions: abundance of the listed protein in decelled pancreatic ECM
row,Molecule,Pancreatic ECM: Mean of log2(intensities) [a.u.]
1,B8,24.78
2,B9,30.23

# Same assay, conditions: abundance of the listed protein in native murine pancreas tissue
row,Molecule,Native pancreas tissue: Mean of log2(intensities) [a.u.]
1,B8,22.08
2,B9,26.99
